# Measured values reported in publication PMC7819943, “Rice protein-binding microarrays: a tool to detect cis-acting elements near promoter regions in rice”.
# The chains behind the UniProt entries cited, without tags or fusion partners.
# UniProt Q0JBA9, entry or part of it: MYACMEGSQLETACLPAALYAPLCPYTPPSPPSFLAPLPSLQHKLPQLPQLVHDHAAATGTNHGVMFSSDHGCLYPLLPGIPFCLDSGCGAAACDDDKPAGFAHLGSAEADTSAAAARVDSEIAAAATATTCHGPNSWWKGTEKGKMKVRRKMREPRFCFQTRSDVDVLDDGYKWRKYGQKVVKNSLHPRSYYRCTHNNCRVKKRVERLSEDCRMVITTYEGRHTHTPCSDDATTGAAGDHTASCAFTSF
# The other results are listed elsewhere or left out.
# Biological target: OsWRKY34 (Oryza sativa, UniProt Q0JBA9 1-250)
# Test: protein-binding microarray (RPBM); PBS, 2% BSA, 51.3 ng/ul salmon testes DNA, 50 uM zinc acetate, 200 nM TF, 25 C, 1 h; high values mean tight binding
# Details: protein: recombinant; tags: N-terminal polyhistidine and DsRed monomer fusion (pET32a); label: CyDye5-dUTP incorporated in the synthesized complementary strand; 3' TTTTT single-stranded linker to array surface; dsDNA, one strand shown
# Procedure, shortened: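 Binding signal is defined as the fluorescence intensity of each feature in arbitrary units, read on an Axon 4000B scanner. Transcription factors with N-terminal polyhistidine and DsRed fusions came from E. coli BL21-CodonPlus and were purified on Ni–NTA. They were incubated at 200 nM for 1 h at 25 °C on a custom Agilent array that had been made double-stranded with Cy5-dUTP, with 50 µM zinc acetate present, and the array was washed.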
row,Sequence,binding signal
1,AAAACCCTAGCGCCTTCGTCTACCTCCAGCTCGTCGCGCGCGGAGTCACCTAGTGCAG,8870 fluorescence intensity (a.u.)
2,AGTTCTCTTCATATCAATGGGACATTTCCCTGTCAGTGTGCGGAGTCACCTAGTGCAG,9340 fluorescence intensity (a.u.)
3,GTCACATTTAACACTAATGAATTTTACTTCCTATTATTTGCGGAGTCACCTAGTGCAG,9160 fluorescence intensity (a.u.)
4,GAACGCATTACCCATTCCCCGTTTGACTTCCAATTCAAACCGGAGTCACCTAGTGCAG,9500 fluorescence intensity (a.u.)
5,AGTTGACTTCCAGTTGGGCATCTGCGCTGCTAACCATCTCCGGAGTCACCTAGTGCAG,9650 fluorescence intensity (a.u.)
6,CATGCATGTTGCAACCACTACGCTGCGTATCCTAGTTTTACGGAGTCACCTAGTGCAG,8510 fluorescence intensity (a.u.)
7,TTCCGCCACAAGTTCCCGGCCGCCGCCGCCGCCGCCGCCACGGAGTCACCTAGTGCAG,8160 fluorescence intensity (a.u.)
8,TTCTGAACCGTGTTAAAATGCTACAAAATTTTCCCTTTTTCGGAGTCACCTAGTGCAG,8570 fluorescence intensity (a.u.)
9,CAAGAGCCCCAAATCCGCTATTGCATTTGTTTCATTTCATCGGAGTCACCTAGTGCAG,10600 fluorescence intensity (a.u.)
10,CTAAACAGGCCCTTAGACGCACCCCTTGGGTTCAACCGACCGGAGTCACCTAGTGCAG,8640 fluorescence intensity (a.u.)
11,GGGGCGTCCCGGGAGGGGAGGGAGATGGGGAGGGAGCGGACGGAGTCACCTAGTGCAG,16800 fluorescence intensity (a.u.)
12,CTTTTTCACGATGATAGATAGTAGCCACTTTTTTCTGTCGCGGAGTCACCTAGTGCAG,8310 fluorescence intensity (a.u.)
13,ATATACATGTGATAGCTTCGTCTCAAGATACATTGTCCTACGGAGTCACCTAGTGCAG,9500 fluorescence intensity (a.u.)
14,CCCCACCATTCTATTCCGTCCACACATTCCTTTCTTACAACGGAGTCACCTAGTGCAG,8420 fluorescence intensity (a.u.)
15,TGAGGTTGGTGTTGACGCTGTTGTCGACGAAGCTGGATGTCGGAGTCACCTAGTGCAG,9590 fluorescence intensity (a.u.)
16,GCCTGCCTGCGACACACGCAGCAATCTAGCTCGTCACGTACGGAGTCACCTAGTGCAG,9380 fluorescence intensity (a.u.)
17,CATTTGGTACAGCGTCAATTTCATCCCACTCACTTTGTTTCGGAGTCACCTAGTGCAG,11800 fluorescence intensity (a.u.)
18,CCATTACAGGTGTCGCAGCACCTTGTTTCTTCAGTTGCTGCGGAGTCACCTAGTGCAG,8020 fluorescence intensity (a.u.)
19,CCCTCTATAAATGGTTCCTATCACAACCACAAACACCACACGGAGTCACCTAGTGCAG,8240 fluorescence intensity (a.u.)
20,GATGAAAACATTATCAATCATTCTCTTTTTCTTTCTTTTTCGGAGTCACCTAGTGCAG,9260 fluorescence intensity (a.u.)
21,CTTTCACCCTACTAAACATTGTAATTGTATATGTGGATCACGGAGTCACCTAGTGCAG,9500 fluorescence intensity (a.u.)
22,TCCTCGCGTTCTTTTTCTCCACCGAGACCACCGGCGCTCTCGGAGTCACCTAGTGCAG,9050 fluorescence intensity (a.u.)
23,TCCACCGCCTCCGGCCGCCTCTCCGGCGATCGCCGACTTCCGGAGTCACCTAGTGCAG,8440 fluorescence intensity (a.u.)
24,ATTTACAAAAATTATCCTTTTTCTTTATCCACCAGCTTCTCGGAGTCACCTAGTGCAG,8630 fluorescence intensity (a.u.)
25,GCTACCCTTTTTCCCTGATATCTATCCCCTTTCCATTGTACGGAGTCACCTAGTGCAG,9950 fluorescence intensity (a.u.)
26,AAATGTGTTGTTGTCTGGTTTGATTCCCTATCAAAATTTACGGAGTCACCTAGTGCAG,9510 fluorescence intensity (a.u.)
27,ATATATAGCCTCTGCCTAAAACCATCATGCTCCTTCAGTTCGGAGTCACCTAGTGCAG,9250 fluorescence intensity (a.u.)

row,Sequence,binding signal
1,TAAGACAAACGGTCAAACATATGCTAAAAAGTCAACGGCGCGGAGTCACCTAGTGCAG,11300 fluorescence intensity (a.u.)
2,TACTTATGTAACACCTTTTGTATCTGAATGTATTTATTTCCGGAGTCACCTAGTGCAG,9790 fluorescence intensity (a.u.)
3,GGGGCACAGTTTCTTCAACCTCCAGCCATTAGGAACTTTTCGGAGTCACCTAGTGCAG,8150 fluorescence intensity (a.u.)
4,ACGAGCCTGTGTCCCCACGCTACACATTCTGTTTGCTCTTCGGAGTCACCTAGTGCAG,9910 fluorescence intensity (a.u.)
5,AATACCGTCAGTTCTTGCAGCCAACCGCATCCGCCATAAACGGAGTCACCTAGTGCAG,8850 fluorescence intensity (a.u.)
6,AGTAGTCTTATAGCATGTTTTGCTTGTGTGCTTTGTTTGTCGGAGTCACCTAGTGCAG,12700 fluorescence intensity (a.u.)
7,GTCCCGATCCGCCGTTGACCAAGATCGACCCCGATCACCTCGGAGTCACCTAGTGCAG,14900 fluorescence intensity (a.u.)
8,GGGGATTTGGGGAGACTTTTGGAGGGGAGGAGAGAGGGCGCGGAGTCACCTAGTGCAG,19700 fluorescence intensity (a.u.)
9,TTTAGATATCAGCCGTGCACTTTACTTTTTTTTTTTTTCGCGGAGTCACCTAGTGCAG,8390 fluorescence intensity (a.u.)
10,CATACTAATTCAGTTATTCCGATGCCATTTTCTTGTTGAACGGAGTCACCTAGTGCAG,10400 fluorescence intensity (a.u.)
11,TGCCCTTCTGCCTATTATGTCCATTGCTTTGCACATCAACCGGAGTCACCTAGTGCAG,9900 fluorescence intensity (a.u.)
12,GCCGCCTACTACTTCTCCGAGGGTTCAAACCTCACCTTCACGGAGTCACCTAGTGCAG,12100 fluorescence intensity (a.u.)
13,CCGCACCGTCCGCCGCGCCCTGCTCCGTCCTGCTCCGCCGCGGAGTCACCTAGTGCAG,8430 fluorescence intensity (a.u.)
14,AGGGATAGATTGGCTTAGGGGCGGGTGGGTCTAGAGATTTCGGAGTCACCTAGTGCAG,27000 fluorescence intensity (a.u.)
15,CAAAACATACAGGGCCCATATGCTCCTTTAATTTTTCTTTCGGAGTCACCTAGTGCAG,8120 fluorescence intensity (a.u.)
16,GCGACCTGAAACTCCGGGAATTCACACGTTTTTCTGCAGACGGAGTCACCTAGTGCAG,8320 fluorescence intensity (a.u.)
17,TTATTGTTATTATTATCATTTCACAGGAAGTACTTGATCCCGGAGTCACCTAGTGCAG,8710 fluorescence intensity (a.u.)
18,CACTACTATGATTCTTGGGCACATACTTCTCCTACTGATTCGGAGTCACCTAGTGCAG,12100 fluorescence intensity (a.u.)
19,AACAACCACTTGCCATTGCCCCACACCCACCTCCTCGCCTCGGAGTCACCTAGTGCAG,13000 fluorescence intensity (a.u.)
20,AACGACCTTATCATCTCGTTTCGCATGTTTCCGCACCGTACGGAGTCACCTAGTGCAG,10400 fluorescence intensity (a.u.)
21,CATATTATTATAATATTATAAGTCGTTTAACTATTATTTTCGGAGTCACCTAGTGCAG,8740 fluorescence intensity (a.u.)
22,AGTTCATGTTCATTCCGCATCCCCTTCTCTCGGTTTCTCCCGGAGTCACCTAGTGCAG,11800 fluorescence intensity (a.u.)
23,TTGCATTTTTGACTGTTTGCGTTGACTCCCTCACTTCTTCCGGAGTCACCTAGTGCAG,16400 fluorescence intensity (a.u.)
24,ATCAGATTTACCGGCGTATCTTGACGGCCACGTCAGTCCCCGGAGTCACCTAGTGCAG,8210 fluorescence intensity (a.u.)
25,CCCTGTTCCATTTGTACCCTAACTCAGGACCCTAACTAATCGGAGTCACCTAGTGCAG,8790 fluorescence intensity (a.u.)
26,CCTCGACTCCGGCGACCACCCCGCCGCGCTCCACCTCGCCCGGAGTCACCTAGTGCAG,11200 fluorescence intensity (a.u.)
27,TGTTTCTCCAGTCTCCACATCACTGCGTGTCTGCGTCGCCCGGAGTCACCTAGTGCAG,8790 fluorescence intensity (a.u.)

# 3 records picked at random from the list so far:
row,Sequence,binding signal
3,GGGGCACAGTTTCTTCAACCTCCAGCCATTAGGAACTTTTCGGAGTCACCTAGTGCAG,8150 fluorescence intensity (a.u.)
13,CCGCACCGTCCGCCGCGCCCTGCTCCGTCCTGCTCCGCCGCGGAGTCACCTAGTGCAG,8430 fluorescence intensity (a.u.)
18,CACTACTATGATTCTTGGGCACATACTTCTCCTACTGATTCGGAGTCACCTAGTGCAG,12100 fluorescence intensity (a.u.)
